PubChem BioAssay AID485314 (National Center for Advancing Translational Sciences (NCATS), 2010)
The whole screen tested about 340,000 compounds, of which about 4,500 (1.3%) were called active. The shares of active, inactive and inconclusive entries below differ from those in the screen. Calls follow the shape of the dose curve; as a rule, active = well fitted inhibition curve with a large enough effect; inconclusive = small, poorly fitted or top-dose-only effect, or another doubt; inactive = no such curve, though single readings can be large or run the other way. Potencies beside an inconclusive call are fits to weak or partial responses and may not hold up.

biological target: DNA polymerase beta (Homo sapiens) (UniProt P06746); experiment: qHTS Assay for Inhibitors of DNA Polymerase Beta; conditions: Pol beta primer extension/strand displacement, fluorescence kinetic; series mostly up to 114 µM
How it was run: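 Reaction started by 50 nM substrate onto compound-treated Pol beta (10 nM, 15 min preincubation, room temperature); plates read at 0 min and 10 min. Normalized concentration-effect data fitted by four-parameter Hill equation.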
Potency is read from the fitted curve at half-maximal effect.

Question: Which Potency does the source give for `Cc1cn2c(=O)cc(COc3ccc(NC(=O)c4ccc(C(C)(C)C)cc4)cc3)nc2s1` here?
Answer: inconclusive: 1.12 µM [inhibitor, full curve, poor fit]

Question: How did the Potency turn out when `COc1ccc(C2C(C(C)=O)=C(C)N=c3s/c(=C\c4ccco4)c(=O)n32)c(OC)c1` (stereo unspecified) was run?
Answer: active: 35.5 µM

Question: `CCCCCCCCCCCC(=O)NC(C(=O)O)C(O)c1ccccc1` (stereo unspecified) was tested. Which Potency did it give?
Answer: inconclusive: 100 µM [inhibitor, single point]

Question: With `N=c1sccn1CC(=O)Nc1ccc(S(N)(=O)=O)cc1` as the molecule, how does the Potency read?
Answer: inconclusive: 79.4 µM [inhibitor, partial curve]

Question: With `CCc1ccc(NC(=O)CSc2ccc(-c3sc(C)nc3C)nn2)cc1` as the molecule, how does the Potency read?
Answer: inconclusive: 44.7 µM [inhibitor, partial curve]

Question: With `O=C(CCCc1ccccc1)NCc1ccc(F)cc1` as the molecule, how does the Potency read?
Answer: inactive

Question: With `COc1ccc(S(=O)(=O)N2CCN(C(=O)c3cccnc3)CC2)cc1OC` as the molecule, how does the Potency read?
Answer: inconclusive: 56.2 µM [inhibitor, partial curve]

Question: How did the Potency turn out when `COc1ccccc1NC(=O)C1=C(C)NC(SCC(=O)c2ccccc2)=C(C#N)C1c1ccco1` (stereo unspecified) was run?
Answer: inconclusive: 8.91 µM [inhibitor, full curve]

Question: For `COc1ccc(NC(C)=O)cc1NC(=O)c1cccc(C(F)(F)F)c1`, which Potency is on record?
Answer: inconclusive: 89.1 µM [inhibitor, single point]

Question: `O=C(Nc1ccccc1C(=O)NC(Cc1c[nH]c2ccccc12)C(=O)O)c1ccco1` (stereo unspecified) was tested. Which Potency did it give?
Answer: inconclusive: 89.1 µM [inhibitor, single point]

Question: With `CCOC(=O)C1Nc2ccc(Br)cc2C2C=CCC12` (stereo unspecified) as the molecule, how does the Potency read?
Answer: inconclusive: 89.1 µM [inhibitor, single point]

Question: `Nn1c(Cc2cccc3ccccc23)nnc1SC1CCOC1=O` (stereo unspecified) was tested. Which Potency did it give?
Answer: inconclusive: 31.6 µM [inhibitor, single point]

Question: For `O=C(O)c1ccccc1-c1ccc(/C=C2\SC(=O)N(c3ccccc3)C2=O)o1`, which Potency is on record?
Answer: inconclusive: 6.31 µM [inhibitor, full curve]

Question: With `COc1ccc(-n2c(SC(C)C(=O)N3CCOCC3)nc3ccccc3c2=O)cc1` (stereo unspecified) as the molecule, how does the Potency read?
Answer: inconclusive: 0.891 µM [inhibitor, partial curve, poor fit]

Question: With `Cc1ccc(-n2cc(CNCCCn3cccn3)c(-c3cccc(C)c3)n2)cc1` as the molecule, how does the Potency read?
Answer: inconclusive: 3.16 µM [inhibitor, partial curve, poor fit]

Question: Which Potency does the source give for `O=c1c2cnn(-c3ccccc3)c2ncn1Cc1cccnc1` here?
Answer: inconclusive: 89.1 µM [inhibitor, single point]

Question: Which Potency does the source give for `COc1ccc(Br)cc1CNC(=O)CCNC(=O)Cn1ccc2ccccc2c1=O` here?
Answer: inconclusive: 70.8 µM [inhibitor, partial curve, poor fit]

Question: `CN(CC(=O)Nc1cccc(F)c1)C(=O)c1ccc(N2CCOCC2)c([N+](=O)[O-])c1` was tested. Which Potency did it give?
Answer: inconclusive: 2.82 µM [inhibitor, partial curve, poor fit]

Question: How did the Potency turn out when `CC(C)[C@H](NC(=O)c1ccco1)C(=O)N(C)Cc1c(F)cccc1Cl` was run?
Answer: inconclusive: 89.1 µM [inhibitor, single point]

Question: How did the Potency turn out when `CCOC(=O)c1cnc(-n2nc(C)cc2C)nc1NCc1ccc2c(c1)OCO2` was run?
Answer: inconclusive: 2.82 µM [inhibitor, partial curve, poor fit]

Question: `Cc1sc(-n2c(C)cc(C=O)c2C)c(C(=O)O)c1C` was tested. Which Potency did it give?
Answer: inconclusive: 12.6 µM [inhibitor, partial curve]

Question: For `Cc1cc(NC(=O)CSc2nc3c(c(-c4cccnc4)c2C#N)CCC3)no1`, which Potency is on record?
Answer: inactive

Question: With `CC(C)(C)c1ccc(S(=O)(=O)Nc2ccc(Cc3ccncc3)cc2)cc1` as the molecule, how does the Potency read?
Answer: inconclusive: 3.55 µM [inhibitor, single point]

Question: `O=C(Nc1nccs1)c1ccc(-c2ccccc2[N+](=O)[O-])o1` was tested. Which Potency did it give?
Answer: inconclusive: 12.6 µM [inhibitor, full curve]

Question: With `O=C(COC(=O)c1cc(-c2ccco2)nc2ccccc12)NCc1ccc2c(c1)OCO2` as the molecule, how does the Potency read?
Answer: active: 28.2 µM

Question: For `O=C(CCC1CCCC1)NNC(=O)c1cc2ccccc2cc1O`, which Potency is on record?
Answer: active: 50.1 µM

Question: Which Potency does the source give for `O=C(Cn1c(=O)c2cccn2c2ccc(F)cc21)NCc1cccc(Cl)c1` here?
Answer: inactive

Question: `O=C(NCC1CCCO1)c1ccc(N2C(=O)C3CCCCC3C2=O)cc1` (stereo unspecified) was tested. Which Potency did it give?
Answer: inactive

Question: With `COc1ccc(/C=C/C(=O)O)cc1S(=O)(=O)N1CCc2ccccc21` as the molecule, how does the Potency read?
Answer: inconclusive: 17.8 µM [inhibitor, full curve]

Question: With `Fc1ccc(CSc2nc3ncc(Br)cc3[nH]2)cc1` as the molecule, how does the Potency read?
Answer: inconclusive: 20 µM [inhibitor, full curve]

Question: `O=C(NCCc1c[nH]c2ccccc12)c1cc(S(=O)(=O)N2CCCCC2)ccc1N1CCOCC1` was tested. Which Potency did it give?
Answer: inconclusive: 35.5 µM [inhibitor, partial curve]

Question: Which Potency does the source give for `Cc1cc(=O)n2[nH]c(-c3ccccc3Cl)cc2n1` here?
Answer: inconclusive: 89.1 µM [inhibitor, single point]

Question: How did the Potency turn out when `O=C(CCCN1C(=O)C2CCCCN2C1=O)N1CCN(c2ccc([N+](=O)[O-])cc2)CC1` (stereo unspecified) was run?
Answer: inconclusive: 0.141 µM [inhibitor, full curve, poor fit]

Question: For `O=C(NCCCN1CCCCC1)C1CCCN(c2ncnc3c2nc2n3CCCCC2)C1` (stereo unspecified), which Potency is on record?
Answer: inconclusive: 25.1 µM [inhibitor, single point]

Question: How did the Potency turn out when `CCOC(=O)Cc1c(C)nc2c(-c3ccc(Cl)cc3)c[nH]n2c1=O` was run?
Answer: inactive

Question: Which Potency does the source give for `CCCOc1ccc(/C=N/Nc2ccc(C(=O)O)cc2)c(OCCC)c1` here?
Answer: inconclusive: 63.1 µM [inhibitor, single point]

Question: How did the Potency turn out when `CCc1ccc(-n2c(CCC(=O)O)ccc2-c2cccs2)cc1` was run?
Answer: inconclusive: 15.8 µM [inhibitor, single point]

Question: With `Cc1nnc(N2CCN(C(=O)Nc3cc(F)ccc3F)CC2)c2nn(-c3ccc(Cl)cc3)c(C)c12` as the molecule, how does the Potency read?
Answer: inconclusive: 50.1 µM [inhibitor, partial curve]

Question: With `Cc1cc(C)n(-c2nc(NCCN(C)C)c3c4c(sc3n2)CCCC4)n1` as the molecule, how does the Potency read?
Answer: inconclusive: 70.8 µM [inhibitor, single point]

Question: `CC(OC(=O)c1ccco1)C(=O)NC1CCCCC1` (stereo unspecified) was tested. Which Potency did it give?
Answer: inconclusive: 3.16 µM [inhibitor, full curve, poor fit]
